Reference: patent US6555576B1, “Method for treating exercise induced asthma” (SmithKline Beecham Corporation, priority 1999, dated 2003)
At least one compound was matched to its structure with a doubt left.

Tested on: low affinity form of PDE 4 (LPDE 4)
Assay: PDE 4 catalytic activity assay (low affinity form)
Type: biochemical, human
Conditions: HPDE 4 IC50 divided by LPDE 4 IC50

COc1ccc([C@@H]2CC[C@H](C(=O)O)C2)cc1OC1CCCC1 (relative stereo) [cis-[3-(3-cyclopentyloxy-4-methoxyphenyl)cyclopentane-1-carboxylate]]
High/Low Ratio (IC50 high affinity / IC50 low affinity): 0.0078
